# Results reported in the supplement of paper PMC5949888.
# ± gives the standard deviation of the averaged measurements. Most values lie at the floor of the assay. Slopes are relative: functional sequences can read slightly below zero.
# System: Saccharomyces cerevisiae PS128 hsf1 delta, HSF1(1-493) fusion
# Experiment: growth estimate (transactivation domain function in HSF1 fusion, heat-shock survival) (a.u. (slope of normalised read count over time)); higher = stronger growth at 37°C, i.e. more transactivation activity
# Conditions: library: random library
row,Substance,growth estimate
1,GGLRHIRRRDGTLGPEIRRR,< -0.25
2,VSQVCECYGHIN,-0.25
3,LAEAHNSVQGLPQRSAPSPA,< -0.25
4,GWAIKNLAACFIIPLEG,-0.224
5,YVYL,< -0.25
6,PTKVCFRRR,< -0.25
7,GDRGGARLLGIFTVEF,< -0.25
8,KQAGLCYMRPVSHADAEVGD,< -0.25
9,LTVSFGHDVGRPKGYGSQD,-0.25
10,LHFRNWVPSSGAANVLKGGA,-0.246
11,IRSCHSGIYSPRECMG,< -0.25
12,RRCVHHSFLRDMRLRLKSHP,< -0.25
13,RWSLHRSCPVES,< -0.25
14,EQSACSGQR,< -0.25
15,FIV,< -0.25
16,LKAWRS,< -0.25
17,WLGGSLKQTRSLMNEHVQKL,< -0.25
18,PRFVLIGRTVRTSGTELGAA,< -0.25
19,LSRCVRDTGKLKRDVPAILM,< -0.25
20,ILDRSVVINSSDSPAVVR,< -0.25
21,NPWKILVDVIYAASRGVNFS,< -0.25
22,KPVRSGPGLGKRLGEH,< -0.25
23,PLSRESKLRYCPPRF,< -0.25
24,FGRNLVGATSHQ,< -0.25
25,RTDECSPKL,< -0.25

row,Substance,growth estimate
1,QFVLFWRPRKVGQVSCRLCT,< -0.25
2,GWSTQNYNHLEV,< -0.25
3,IGKTRVKHGDPSTAKSLYLL,< -0.25
4,RMLKVTSNWYLRAY,< -0.25
5,CSL,< -0.25
6,ASPYAGMTKGVSDIRKRICG,< -0.25
7,LRLGRVQLSN,< -0.25
8,EERTVGCQDGEV,< -0.25
9,IVWLQRGISCHMTSFPAK,< -0.25
10,TVGRDVFTFVFVVPRTPPSE,< -0.25
11,CSCGHVSNRARGPVIVLVQQ,< -0.25
12,LMSVKRFWI,-0.148
13,GRRVPAELTHPTCDTRCPGH,< -0.25
14,GFDEKN,< -0.25
15,RTPLLEFIL,< -0.25
16,ELLLDAAQRMLFLAVCFTYE,< -0.25
17,VRLRQSDVLRAHHSFDNGEK,< -0.25
18,VSAGGVSSETA,< -0.25
19,ARNLVRHGP,< -0.25
20,VLPTLRGCVTLWYNSPTSAA,< -0.25
21,RYSRKDRVTLQLVTTRITRG,< -0.25
22,PLHRWAHLGKQSRVPIPTPV,< -0.25
23,ISWATFISRVLATSPDMG,< -0.25
24,PSAGLYLRPVIA,< -0.25
25,WVGIRAAH,< -0.25

row,Substance,growth estimate
1,NGLSRRLYGSSGVRHSR,< -0.25
2,PDPGYDHGYKPILLGR,< -0.25
3,APVRDGHSRYIAR,< -0.25
4,GYIPLGP,< -0.25
5,RHKCRLTRACEFDLFLAVLH,< -0.25
6,KWHGWILRTSDGPC,< -0.25
7,IQGKVDSQAVLRRS,< -0.25
8,NFLGPVQFG,< -0.25
9,LRTYIS,< -0.25
10,RCCNG,< -0.25
11,SRRPRSLRGTVVSVRGRVRV,< -0.25
12,MPTNRITRDPWTHPIC,< -0.25
13,SRGVHVKAELPDSVQRDWEV,< -0.25
14,RYTLADRCGQKLKNSGGRSC,< -0.25
15,IPIEFVGIKGQYWGRSNGKP,< -0.25
16,FRDSNKGSGPGVVHIIVSGG,< -0.25
17,LINGSEGAQQVTEGSWFESV,< -0.25
18,RTYRDGGRTQ,< -0.25
19,GAISY,< -0.25
20,ASYGQHNTE,< -0.25
21,GTWLRS,< -0.25
22,FSVDATRPSQC,< -0.25
23,HFLFNSGRGNR,< -0.25
24,HPSLLERAVTALVQLWVVWI,< -0.25
25,LNGVGAIQSAQNQARIRHHK,< -0.25

row,Substance,growth estimate
1,STKFDRLNEGIATRNVHDHP,< -0.25
2,PSKWQVIRLELADIRRAIAL,< -0.25
3,ICIICPSPGPDCHVSRRHLG,< -0.25
4,NMFYGGPEFASWPPEPVEFE,0.0951
5,LSFRESTSEV,< -0.25
6,LTRARME,< -0.25
7,PDIPRAR,< -0.25
8,TRGQRTSLYSSGRHHGCRS,< -0.25
9,VYAPAPVIL,< -0.25
10,VQGFWAVNETR,< -0.25
11,ESILIIGF,< -0.25
12,TRLLSIKGVKWFIRDGKERT,< -0.25
13,KRCMRTTRRCQTLANVRALS,< -0.25
14,AVLTNARVRSAYLRRCG,< -0.25
15,RSYACVHARAINVSVE,< -0.25
16,GGGFRSRVGQAPSAERVQSA,< -0.25
17,SVIN,< -0.25
18,RQRA,< -0.25
19,RKHGAEQAKVSNSREFSWTV,< -0.25
20,GGSCIRFVEYYLCKDC,< -0.25
21,HRGTRRRVVEITWGVASLMM,< -0.25
22,GPLMIQWEQSRSDKGCHRPG,< -0.25
23,DSKGGHRPWVFVVFYCVHAG,< -0.25
24,CDHRRAFA,< -0.25
25,TRPEDRINPLDEGPLRNIVG,< -0.25

# A run of entries of the results above:
row,Substance,growth estimate
21,RYSRKDRVTLQLVTTRITRG,< -0.25
22,PLHRWAHLGKQSRVPIPTPV,< -0.25
23,ISWATFISRVLATSPDMG,< -0.25
24,PSAGLYLRPVIA,< -0.25
25,WVGIRAAH,< -0.25
1,NGLSRRLYGSSGVRHSR,< -0.25
2,PDPGYDHGYKPILLGR,< -0.25
3,APVRDGHSRYIAR,< -0.25
4,GYIPLGP,< -0.25
5,RHKCRLTRACEFDLFLAVLH,< -0.25
6,KWHGWILRTSDGPC,< -0.25
7,IQGKVDSQAVLRRS,< -0.25
8,NFLGPVQFG,< -0.25
9,LRTYIS,< -0.25
10,RCCNG,< -0.25
11,SRRPRSLRGTVVSVRGRVRV,< -0.25
12,MPTNRITRDPWTHPIC,< -0.25
13,SRGVHVKAELPDSVQRDWEV,< -0.25
14,RYTLADRCGQKLKNSGGRSC,< -0.25
15,IPIEFVGIKGQYWGRSNGKP,< -0.25
16,FRDSNKGSGPGVVHIIVSGG,< -0.25
17,LINGSEGAQQVTEGSWFESV,< -0.25
18,RTYRDGGRTQ,< -0.25
19,GAISY,< -0.25
20,ASYGQHNTE,< -0.25
21,GTWLRS,< -0.25
22,FSVDATRPSQC,< -0.25
23,HFLFNSGRGNR,< -0.25
24,HPSLLERAVTALVQLWVVWI,< -0.25
25,LNGVGAIQSAQNQARIRHHK,< -0.25
1,STKFDRLNEGIATRNVHDHP,< -0.25
2,PSKWQVIRLELADIRRAIAL,< -0.25
3,ICIICPSPGPDCHVSRRHLG,< -0.25
4,NMFYGGPEFASWPPEPVEFE,0.0951
5,LSFRESTSEV,< -0.25
6,LTRARME,< -0.25
7,PDIPRAR,< -0.25
8,TRGQRTSLYSSGRHHGCRS,< -0.25
9,VYAPAPVIL,< -0.25
10,VQGFWAVNETR,< -0.25
11,ESILIIGF,< -0.25
12,TRLLSIKGVKWFIRDGKERT,< -0.25
13,KRCMRTTRRCQTLANVRALS,< -0.25
14,AVLTNARVRSAYLRRCG,< -0.25
15,RSYACVHARAINVSVE,< -0.25
16,GGGFRSRVGQAPSAERVQSA,< -0.25
17,SVIN,< -0.25
18,RQRA,< -0.25
19,RKHGAEQAKVSNSREFSWTV,< -0.25
20,GGSCIRFVEYYLCKDC,< -0.25
21,HRGTRRRVVEITWGVASLMM,< -0.25
22,GPLMIQWEQSRSDKGCHRPG,< -0.25
23,DSKGGHRPWVFVVFYCVHAG,< -0.25

# (next part)

row,Substance,growth estimate
1,EYQRKVRAGYREALVVETSP,< -0.25
2,PHEYCGVNMER,< -0.25
3,GDQLCHSGTQG,< -0.25
4,RTVAFRGLSDLVAPTVPY,< -0.25
5,DWPPSHAASPPMFYMWDRGP,< -0.25
6,GNRLSTLSSASP,< -0.25
7,NNVTQKR,< -0.25
8,VQAHRPDR,< -0.25
9,SVYEMFEGLIFRVVVESWML,< -0.25
10,NHTRGL,< -0.25
11,HFEPNSNTRGSGSPGGVPHS,< -0.25
12,SYVYLGIFCSGHRDSRVCGN,< -0.25
13,GIFQSLDSYWRPIDFAGLRP,< -0.25
14,GQMLLNA,< -0.25
15,KERRRA,< -0.25
16,SLPFEASWSVRNEVVDGRVT,< -0.25
17,TGVRLAARGYFGVRPGNKPG,< -0.25
18,GCLVRQLV,< -0.25
19,SAVVSGSGHTAMSGSRILTQ,< -0.25
20,VNNTILHPTVSI,< -0.25
21,LSLTRNQSRTDGKARGDITG,< -0.25
22,RYFK,< -0.25
23,VTW,< -0.25
24,RILYAGGPSGRLGLEAT,< -0.25
25,HDQSRAGVSRVGIFYTTSSP,< -0.25

row,Substance,growth estimate
1,CANMQSNSERYVLSGDPHQY,< -0.25
2,GKLSEGRVNKRRNEPYRSGP,< -0.25
3,SDRPVRLSRNLDNPFYARGH,< -0.25
4,HVSNRLEVCASWGSPVTPSV,< -0.25
5,PLGQLLLHYWDAD,-0.249
6,LAQVTPAA,< -0.25
7,VSLKLKDMTSSRLPVDREYS,< -0.25
8,RGPA,< -0.25
9,RRSWSCQSIA,-0.246
10,CRRHRVGVSETNCRLTQCIP,< -0.25
11,VGLEPG,< -0.25
12,VIPTFIKYRSIDMRRLHISS,< -0.25
13,GTRDPVFKKCRYGRLKSWVG,-0.203
14,TLFNGAQGAS,< -0.25
15,SARAGAGNLDNIEKANSMGT,< -0.25
16,LGPGCLSPEQGQAVPAEVKA,< -0.25
17,STGSIGSSSVSVNLPVPKYS,< -0.25
18,SHEIRRVGANA,< -0.25
19,SGVL,< -0.25
20,GKGLLRTLIILVKVNFCPVT,< -0.25
21,LEQASTLRWASRVRGGLASN,< -0.25
22,FEPYYHVSRLIAWLRTPASG,< -0.25
23,TLDGCVKSTFPGPRPPKDDP,< -0.25
24,VRSAATLGVVQRPV,< -0.25
25,DICHAFVQTRWKI,< -0.25

row,Substance,growth estimate
1,NPQFLRSLRARHRPAGRDRP,< -0.25
2,EASEESTKSATLS,< -0.25
3,FEFSDGQ,< -0.25
4,RVMLGSDGSLVPMPTCITPT,< -0.25
5,DDRMEFSEYKAVPPRPYIAL,< -0.25
6,ASAGAVRAYLRSEHRGGSIH,< -0.25
7,CNGLRSFEDKY,< -0.25
8,IVSWNQLEGTKKDDVMLNSR,< -0.25
9,IRTEE,< -0.25
10,DSHPTT,< -0.25
11,LKG,< -0.25
12,DDLSPGVVIMPGSITSRHGF,< -0.25
13,VIHTWKLDFGGVIEQLRGLR,< -0.25
14,MCWSTTDLCWS,< -0.25
15,TISYA,< -0.25
16,TTIPLDHFITLWPGMAGRET,< -0.25
17,GVHGTPHRPMIWFWFGYTQR,< -0.25
18,VMPCYKL,< -0.25
19,HTAAAQ,< -0.25
20,STPTEYTRSHLVHQQLGRRC,< -0.25
21,GDIEPLGCRGAGLPVTSLGM,< -0.25
22,QVR,-0.246 ± 0.0076
23,RSGSSVWLVLFCYRGKPDTH,< -0.25
24,WTVSLRPRALPRVKSLVLMI,< -0.25
25,RQFRL,< -0.25

row,Substance,growth estimate
1,RCIAPGKNHCHERAG,< -0.25
2,VRGNVGTRTRIGKKRSPLPP,< -0.25
3,LPSGTPVEVVARWVDRQCLF,< -0.25
4,NLAALVGGTGGFYSVAGDEA,< -0.25
5,KGALPDSAVAAARLTWHTGG,< -0.25
6,SSRRQE,< -0.25
7,SGHRTSRGN,< -0.25
8,CSIICLWFSGRPLV,< -0.25
9,PDLLDTCL,< -0.25
10,KSPCCRAYTRRFVHLCTLGW,< -0.25
11,LGSYGSAGGNATIPTRECLP,< -0.25
12,KLGPAHYQFNTYLLRYDELD,< -0.25
13,SKMVLVGLAPRSRSTETCLR,< -0.25
14,LGWIGK,-0.243
15,GPFQRSDEILSQFEVFGVQP,< -0.25
16,KDKENLEVFIHPATHTLCEA,< -0.25
17,EQILDVRTRRTVVRTLFIIN,< -0.25
18,RGVKTASCMAF,< -0.25
19,SGSIKRSGVTFSRLKSCHPT,< -0.25
20,RKLLCSSRGRGA,< -0.25
21,YSETLAGGGWMSSFRAKLPK,< -0.25
22,LTSHSIRQVDLVRVLTRSPR,< -0.25
23,NTK,< -0.25
